{"source": "patent US20190307798A1", "binders": {"B1": {"name": "XTL19 - IgG4m - CD28 - Zeta chimeric antigen receptor (protein)", "chain": "QVQLVESGGGVVQPGGSLRLSCAPSGFVFRSYGMHWVRQTPGKGLEWVSLIWHDGSNRFYADSVKGRFTISRDNSKNTLYLQMNSLRAEDTAMYFCARERLIAAPAAFDLWGQGTLVTVSSGGGGSGGGGSGGGGSSYVLTQPPSVSVAPGKTARISCGGNNIGTKNVHWYQQKPGQAPVLVVYADSDRPSGIPERFSGSNSGNTATLTISRVEVGDEADYYCQVWDSVSYHVVFGGGTTLTVLGSGGGGSESKYGPPCPSCPAPPVAGPSVFLFPPKPKDTLMISRTPEVTCVVVDVSQEDPEVQFNWYVDGVEVHNAKTKPREEQFQSTYRVVSVLTVLHQDWLNGKEYKCKVSNKGLPSSIEKTISKAKGQPREPQVYTLPPSQEEMTKNQVSLTCLVKGFYPSDIAVEWESNGQPENNYKTTPPVLDSDGSFFLYSRLTVDKSRWQEGNVFSCSVMHEALHNHYTQKSLSLSPGKKDPKFWVLVVVGGVLACYSLLVTVAFIIRVKFSRSADAPAYQQGQNQLYNELNLGRREEYDVLDKRRGRDPEMGGKPRRKNPQEGLYNELQKDKMAEAYSEIGMKGERRRGKGHDGLYQGLSTATKDTYDALHMQALPPR"}}, "target": "Hepatitis B virus surface antigen (HBsAg) (Hepatitis B virus) (UniProt P03138)", "experiment": "electron microscopy count of HBsAg particles left in HepG2.2.15-conditioned media 24 hours after exposure to CAR T-cells (depletion against Ctrl-G4m-CAR T-cells)", "note": "These are yes or no findings as the source states them, for the method shown. Some entries that bind do so weakly or less than the wild type.", "data": [{"binder": "B1", "values": [{"measurement": "binding", "value": "binds"}]}]}
